Paper PMC5117777
Results are given in words; binding and its absence hold for the method and conditions named. Binding seen in cells or lysates may run through a third protein. These calls come from enrichment with a bait or labelling near it, and not all partners need be listed.

Target: TsUBE2L3-HA (Trichinella spiralis)
Test: affinity purification with mass spectrometry; anti-HA affinity matrix on pooled cytosolic and nuclear extracts of transgenic C2C12 myotubes after 24 h DOX induction; HA peptide elution; SDS-PAGE, silver staining, LC/MS/MS; two experiments merged

Binder	binding
ARIH2 (mouse, endogenous) (enzyme, UniProt Q9Z1K6 1-492) MSVDMNSQGSDSNEEDYDPNCEEEEEEEEDPGDIEDYYVGVASDVEQQGADAFDPEEYQFTCLTYKESEGALHEHMTSLASVLKVSHSVAKLILVNFHWQVSEILDRYRSNSAQLLVEARVQPNPSKHVPTAHPPHHCAVCMQFVRKENLLSLACQHQFCRSCWEQHCSVLVKDGVGVGISCMAQDCPLRTPEDFVFPLLPNEELRDKYRRYLFRDYVESHFQLQLCPGADCPMVIRVQEPRARRVQCNRCSEVFCFKCRQMYHAPTDCATIRKWLTKCADDSETANYISAHTKDCPKCNICIEKNGGCNHMQCSKCKHDFCWMCLGDWKTHGSEYYECSRYKENPDIVNQSQQAQAREALKKYLFYFERWENHNKSLQLEAQTYERIHEKIQERVMNNLGTWIDWQYLQNAAKLLAKCRYTLQYTYPYAYYMESGPRKKLFEYQQAQLEAEIENLSWKVERADSYDRGDLENQMHIAEQRRRTLLKDFHDT	binds
TRIM3 (enzyme, UniProt Q9R1R2 1-744) MAKREDSPGPEVQPMDKQFLVCSICLDRYRCPKVLPCLHTFCERCLQNYIPPQSLTLSCPVCRQTSILPEQGVSALQNNFFISSLMEAMQQAPEGAHDPEDPHPLSAVAGRPLSCPNHEGKTMEFYCEACETAMCGECRAGEHREHGTVLLRDVVEQHKAALQRQLEAVRGRLPQLSAAIALVGGISQQLQERKAEALAQISAAFEDLEQALQQRKQALVSDLESICGAKQKVLQTQLDTLRQGQEHIGSSCSFAEQALRLGSAPEVLLVRKHMRERLAALAAQAFPERPHENAQLELVLEVDGLRRSVLNLGALLTTSATAHETVATGEGLRQALVGQPASLTVTTKDKDGRLVRTGSAELCAEITGPDGVRLAVPVVDHKNGTYELVYTARTEGDLLLSVLLYGQPVRGSPFRVRALRPGDLPPSPDDVKRRVKSPGGPGSHVRQKAVRRPSSMYSTGGKRKDNPIEDELVFRVGSRGREKGEFTNLQGVSAASSGRIVVADSNNQCIQVFSNEGQFKFRFGVRGRSPGQLQRPTGVAVDTNGDIIVADYDNRWVSIFSPEGKFKTKIGAGRLMGPKGVAVDRNGHIIVVDNKSCCVFTFQPNGKLVGRFGGRGATDRHFAGPHFVAVNNKNEIVVTDFHNHSVKVYSADGEFLFKFGSHGEGNGQFNAPTGVAVDSNGNIIVADWGNSRIQVFDSSGSFLSYINTSAEPLYGPQGLALTSDGHVVVADAGNHCFKAYRYLQ	binds
TRAF7 (enzyme, UniProt Q922B6 1-594) MPPINTPRRSDSAISVRSLHSESSMSLRSTFSLPEEEEEPEPLVFAEQPSVKLCCQLCCSVFKDPVITTCGHTFCRRCALKSEKCPVDNAKLTVVVNNIAVAEQIGELFIHCRHGCHAAGTGKPGVFEVDPRGCPFTIKLSARKDHESSCDYRPVRCPNNPSCPPLLKMNLEAHLKECEHIKCPHSKYGCTFIGNQDTYETHLETCRFEGLKEFLQQTDDRFHEMHVALAQKDQEIAFLRSMLGKLSEKIDQLEKSLELKFDVLDENQSKLSEDLMEFRRDASMLNDELSHINARLNMGILGSYDPQQIFKCKGTFVGHQGPVWCLCVYSMGDLLFSGSSDKTIKVWDTCTTYKCQKTLEGHDGIVLALCIQGCKLYSGSADCTIIVWDIQNLQKVNTIRAHDNPVCTLVSSHNMLFSGSLKAIKVWDIVGTELKLKKELTGLNHWVRALVAAQSYLYSGSYQTIKIWDIRTLDCIHVLQTSGGSVYSIAVTNHHIVCGTYENLIHVWDIESKEQVRTLTGHVGTVYALAVISTPDQTKVFSASYDRSLRVWSMDNMICTQTLLRHQGSVTALAVSRGRLFSGAVDSTVKVWTC	binds
